No constants are given. Whether binding was seen depends on the method and setting. In cells and extracts the contact can be indirect. For part of these data: Binding calls can cover weak binding; strength is not graded here.
Experiments:
Test in all cases: co-IP
[1] = molecular target: MAYV 2Δ GFP-nsP3 (Mayaro virus)
[2] = molecular target: MAYV GFP-nsP3 ΔFGAP (Mayaro virus)
[3] = molecular target: MAYV GFP-nsP3 ΔFGDF (Mayaro virus)

B1: Ras-GTPase-activating SH3 domain-binding protein 2 (G3BP2) (protein, UniProt Q9UN86 1-482)
chain: MVMEKPSPLLVGREFVRQYYTLLNKAPEYLHRFYGRNSSYVHGGVDASGKPQEAVYGQNDIHHKVLSLNFSECHTKIRHVDAHATLSDGVVVQVMGLLSNSGQPERKFMQTFVLAPEGSVPNKFYVHNDMFRYEDEVFGDSEPELDEESEDEVEEEQEERQPSPEPVQENANSGYYEAHPVTNGIEEPLEESSHEPEPEPESETKTEELKPQVEEKNLEELEEKSTTPPPAEPVSLPQEPPKAFSWASVTSKNLPPSGTVSSSGIPPHVKAPVSQPRVEAKPEVQSQPPRVREQRPRERPGFPPRGPRPGRGDMEQNDSDNRRIIRYPDSHQLFVGNLPHDIDENELKEFFMSFGNVVELRINTKGVGGKLPNFGFVVFDDSEPVQRILIAKPIMFRGEVRLNVEEKKTRAARERETRGGGDDRRDIRRNDRGPGGPRGIVGGGMMRDRDGRGPPPRGGMAQKLGSGRGTGQMEGRFTGQRR
[1]
  binding: no binding
[2]
  binding: binds
[3]
  binding: binds
